At least one compound was matched to its structure with a doubt left.
Test system: ARE target genes Gclm, Nqo1, Srx, Hmox1
Experiment: ARE target gene expression by qPCR, rat co-cultures
Type: cell-based
Conditions: 6 h
Method: FIG. 17 depicts the results of expression assays for Fraction 0-4 and the individual triterpenes oleanolic acid, ursolic acid, betulinic acid and uvaol. “X” symbols denote concentrations of compounds which induced toxicity and for which recovery of residual mRNA was insufficient to support qPCR analysis. Rat primary corticostriatal co-cultures were treated for 6 h with Fraction 0-4 (in μg/ml) or oleanolic acid, ursolic acid, betulinic acid, or uvalol (all in μM) at the concentrations indicated, then harvested and processed for qPCR analysis of the ARE target genes shown. Quantitative RNA values were normalized to the GAPDH reference control and fold-expression changes are expressed relative to the DMSO-carrier only condition (“--”) set to a value of 1. […]
FIG. 18 depicts the results of expression assays for Fraction 0-4 and the individual triterpenes ursolic acid and betulinic acid at more similar concentration ranges. […] Quantitative RNA values were normalized to the GAPDH reference control and fold-expression changes are expressed relative to the DMSO-carrier only condition (“--”) set to a value of 1. […]
For qPCR quantification of ARE target gene expression levels, cortical and striatal neurons were plated onto 96-well plates containing mature glial cultures and cultured for 96 h. […]

SMILES	expression of ARE target genes
C=C(C)[C@@H]1CC[C@]2(C(=O)O)CC[C@]3(C)[C@H](CC[C@@H]4[C@@]5(C)CC[C@H](O)C(C)(C)[C@@H]5CC[C@]43C)[C@@H]12 [Betulinic acid, betulinic acid]	clear upregulation of Srx and Hmox1
C[C@H]1[C@H](C)CC[C@]2(CO)CC[C@]3(C)C(=CC[C@@H]4[C@@]5(C)CC[C@H](O)C(C)(C)[C@@H]5CC[C@]43C)[C@H]12 [uvaol, 3β,28-dihydroxyurs-12-ene]	not able to induce ARE gene expression to a notable extent
